Measured values from paper PMC4541046.
These are yes or no findings as the source states them, for the method shown. In cells and extracts the contact can be indirect. Here binding means that the protein was enriched with, or labelled near, the bait; the list need not be complete.

Chains of the proteins cited; added tags and fusions are not shown. Lines headed by an entry give the natural chain unless they say otherwise; changes in a name come on top.
UniProt P49023: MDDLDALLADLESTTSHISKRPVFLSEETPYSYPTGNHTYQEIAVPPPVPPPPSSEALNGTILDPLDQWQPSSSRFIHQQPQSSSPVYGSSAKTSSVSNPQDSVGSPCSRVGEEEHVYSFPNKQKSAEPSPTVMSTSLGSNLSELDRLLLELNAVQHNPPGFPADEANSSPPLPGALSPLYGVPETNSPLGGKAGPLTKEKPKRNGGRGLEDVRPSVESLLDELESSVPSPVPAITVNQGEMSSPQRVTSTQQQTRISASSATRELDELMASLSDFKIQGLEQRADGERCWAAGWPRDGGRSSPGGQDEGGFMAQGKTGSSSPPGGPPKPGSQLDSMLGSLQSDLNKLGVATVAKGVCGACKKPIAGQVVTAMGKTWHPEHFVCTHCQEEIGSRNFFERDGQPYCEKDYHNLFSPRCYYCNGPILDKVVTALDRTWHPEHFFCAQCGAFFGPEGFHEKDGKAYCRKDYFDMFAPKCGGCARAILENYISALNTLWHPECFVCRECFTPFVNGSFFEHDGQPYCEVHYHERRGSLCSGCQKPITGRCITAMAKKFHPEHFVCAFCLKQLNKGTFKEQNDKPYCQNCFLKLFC
UniProt Q9UQE7: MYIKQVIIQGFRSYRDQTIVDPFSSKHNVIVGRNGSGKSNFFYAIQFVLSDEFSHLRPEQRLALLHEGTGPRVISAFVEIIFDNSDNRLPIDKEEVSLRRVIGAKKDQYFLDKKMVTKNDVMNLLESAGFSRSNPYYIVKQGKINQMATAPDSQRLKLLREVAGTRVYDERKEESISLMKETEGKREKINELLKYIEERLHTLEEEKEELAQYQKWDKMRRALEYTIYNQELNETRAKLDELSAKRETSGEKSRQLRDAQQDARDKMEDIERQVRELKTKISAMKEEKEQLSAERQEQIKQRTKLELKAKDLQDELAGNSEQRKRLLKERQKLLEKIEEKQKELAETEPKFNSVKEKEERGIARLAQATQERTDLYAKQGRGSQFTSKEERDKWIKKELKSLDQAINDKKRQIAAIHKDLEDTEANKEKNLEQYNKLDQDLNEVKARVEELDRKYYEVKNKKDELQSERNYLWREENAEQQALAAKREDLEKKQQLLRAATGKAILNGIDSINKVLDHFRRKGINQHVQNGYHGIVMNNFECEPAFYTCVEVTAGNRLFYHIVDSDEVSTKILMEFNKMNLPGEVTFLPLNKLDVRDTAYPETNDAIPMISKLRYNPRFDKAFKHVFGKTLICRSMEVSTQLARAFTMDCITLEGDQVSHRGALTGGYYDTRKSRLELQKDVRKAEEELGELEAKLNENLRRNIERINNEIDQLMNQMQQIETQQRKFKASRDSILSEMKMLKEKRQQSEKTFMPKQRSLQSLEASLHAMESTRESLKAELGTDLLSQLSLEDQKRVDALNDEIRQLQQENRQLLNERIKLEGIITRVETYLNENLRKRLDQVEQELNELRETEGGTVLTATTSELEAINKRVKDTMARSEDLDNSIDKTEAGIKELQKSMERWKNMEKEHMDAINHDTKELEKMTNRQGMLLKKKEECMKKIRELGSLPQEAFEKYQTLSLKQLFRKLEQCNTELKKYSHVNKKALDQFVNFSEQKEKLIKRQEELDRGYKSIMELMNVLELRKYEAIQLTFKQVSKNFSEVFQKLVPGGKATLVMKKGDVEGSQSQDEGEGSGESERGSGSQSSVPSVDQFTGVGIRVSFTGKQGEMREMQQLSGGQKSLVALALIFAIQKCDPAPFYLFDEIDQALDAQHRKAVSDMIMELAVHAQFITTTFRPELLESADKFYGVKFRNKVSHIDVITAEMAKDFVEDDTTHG
UniProt Q96RN5: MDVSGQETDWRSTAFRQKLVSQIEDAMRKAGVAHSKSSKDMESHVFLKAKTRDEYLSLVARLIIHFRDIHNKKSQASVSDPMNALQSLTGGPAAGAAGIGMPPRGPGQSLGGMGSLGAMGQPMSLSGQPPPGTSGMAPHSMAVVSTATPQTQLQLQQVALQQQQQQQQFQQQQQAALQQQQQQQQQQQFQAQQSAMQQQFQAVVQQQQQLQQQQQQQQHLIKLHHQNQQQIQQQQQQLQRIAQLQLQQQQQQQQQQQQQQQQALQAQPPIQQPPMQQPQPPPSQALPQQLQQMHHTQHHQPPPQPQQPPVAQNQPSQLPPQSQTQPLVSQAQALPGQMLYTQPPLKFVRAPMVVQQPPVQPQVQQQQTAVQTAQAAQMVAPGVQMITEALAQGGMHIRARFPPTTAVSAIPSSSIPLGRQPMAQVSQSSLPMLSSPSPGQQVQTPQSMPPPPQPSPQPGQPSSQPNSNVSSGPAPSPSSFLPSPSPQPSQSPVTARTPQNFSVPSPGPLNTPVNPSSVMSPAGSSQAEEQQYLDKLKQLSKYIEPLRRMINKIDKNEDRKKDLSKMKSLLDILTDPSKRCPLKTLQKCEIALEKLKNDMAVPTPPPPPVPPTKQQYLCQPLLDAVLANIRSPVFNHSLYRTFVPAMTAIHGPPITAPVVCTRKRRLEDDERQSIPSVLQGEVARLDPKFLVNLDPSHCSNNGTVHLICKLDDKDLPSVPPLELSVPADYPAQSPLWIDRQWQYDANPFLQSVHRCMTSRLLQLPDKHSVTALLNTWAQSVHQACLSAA

B1: structural maintenance of chromosomes 1A protein (SMC1A) (protein, UniProt Q14683 1-1233)
chain: MGFLKLIEIENFKSYKGRQIIGPFQRFTAIIGPNGSGKSNLMDAISFVLGEKTSNLRVKTLRDLIHGAPVGKPAANRAFVSMVYSEEGAEDRTFARVIVGGSSEYKINNKVVQLHEYSEELEKLGILIKARNFLVFQGAVESIAMKNPKERTALFEEISRSGELAQEYDKRKKEMVKAEEDTQFNYHRKKNIAAERKEAKQEKEEADRYQRLKDEVVRAQVQLQLFKLYHNEVEIEKLNKELASKNKEIEKDKKRMDKVEDELKEKKKELGKMMREQQQIEKEIKEKDSELNQKRPQYIKAKENTSHKIKKLEAAKKSLQNAQKHYKKRKGDMDELEKEMLSVEKARQEFEERMEEESQSQGRDLTLEENQVKKYHRLKEEASKRAATLAQELEKFNRDQKADQDRLDLEERKKVETEAKIKQKLREIEENQKRIEKLEEYITTSKQSLEEQKKLEGELTEEVEMAKRRIDEINKELNQVMEQLGDARIDRQESSRQQRKAEIMESIKRLYPGSVYGRLIDLCQPTQKKYQIAVTKVLGKNMDAIIVDSEKTGRDCIQYIKEQRGEPETFLPLDYLEVKPTDEKLRELKGAKLVIDVIRYEPPHIKKALQYACGNALVCDNVEDARRIAFGGHQRHKTVALDGTLFQKSGVISGGASDLKAKARRWDEKAVDKLKEKKERLTEELKEQMKAKRKEAELRQVQSQAHGLQMRLKYSQSDLEQTKTRHLALNLQEKSKLESELANFGPRINDIKRIIQSREREMKDLKEKMNQVEDEVFEEFCREIGVRNIREFEEEKVKRQNEIAKKRLEFENQKTRLGIQLDFEKNQLKEDQDKVHMWEQTVKKDENEIEKLKKEEQRHMKIIDETMAQLQDLKNQHLAKKSEVNDKNHEMEEIRKKLGGANKEMTHLQKEVTAIETKLEQKRSDRHNLLQACKMQDIKLPLSKGTMDDISQEEGSSQGEDSVSGSQRISSIYAREALIEIDYGDLCEDLKDAQAEEEIKQEMNTLQQKLNEQQSVLQRIAAPNMKAMEKLESVRDKFQETSDEFEAARKRAKKAKQAFEQIKKERFDRFNACFESVATNIDEIYKALSRNSSAQAFLGPENPEEPYLDGINYNCVAPGKRFRPMDNLSGGEKTVAALALLFAIHSYKPAPFFVLDEIDAALDNTNIGKVANYIKEQSTCNFQAIVISLKEEFYTKAESLIGVYPEQGDCVISKVLTFDLTKYPDANPNPNEQ
B2: MED24 (protein, UniProt O75448 1-989)
chain: MKVVNLKQAILQAWKERWSDYQWAINMKKFFPKGATWDILNLADALLEQAMIGPSPNPLILSYLKYAISSQMVSYSSVLTAISKFDDFSRDLCVQALLDIMDMFCDRLSCHGKAEECIGLCRALLSALHWLLRCTAASAERLREGLEAGTPAAGEKQLAMCLQRLEKTLSSTKNRALLHIAKLEEASSWTAIEHSLLKLGEILANLSNPQLRSQAEQCGTLIRSIPTMLSVHAEQMHKTGFPTVHAVILLEGTMNLTGETQSLVEQLTMVKRMQHIPTPLFVLEIWKACFVGLIESPEGTEELKWTAFTFLKIPQVLVKLKKYSHGDKDFTEDVNCAFEFLLKLTPLLDKADQRCNCDCTNFLLQECGKQGLLSEASVNNLMAKRKADREHAPQQKSGENANIQPNIQLILRAEPTVTNILKTMDADHSKSPEGLLGVLGHMLSGKSLDLLLAAAAATGKLKSFARKFINLNEFTTYGSEESTKPASVRALLFDISFLMLCHVAQTYGSEVILSESRTGAEVPFFETWMQTCMPEEGKILNPDHPCFRPDSTKVESLVALLNNSSEMKLVQMKWHEACLSISAAILEILNAWENGVLAFESIQKITDNIKGKVCSLAVCAVAWLVAHVRMLGLDEREKSLQMIRQLAGPLFSENTLQFYNERVVIMNSILERMCADVLQQTATQIKFPSTGVDTMPYWNLLPPKRPIKEVLTDIFAKVLEKGWVDSRSIHIFDTLLHMGGVYWFCNNLIKELLKETRKEHTLRAVELLYSIFCLDMQQVTLVLLGHILPGLLTDSSKWHSLMDPPGTALAKLAVWCALSSYSSHKGQASTRQKKRHREDIEDYISLFPLDDVQPSKLMRLLSSNEDDANILSSPTDRSMSSSLSASQLHTVNMRDPLNRVLANLFLLISSILGSRTAGPHTQFVQWFMEECVDCLEQGGRGSVLQFMPFTTVSELVKVSAMSSPKVVLAITDLSLPLGRQVAAKAIAAL
B3: mediator subunit 23 (MED23) (protein, UniProt Q9ULK4 1-1368)
chain: METQLQSIFEEVVKTEVIEEAFPGMFMDTPEDEKTKLISCLGAFRQFWGGLSQESHEQCIQWIVKFIHGQHSPKRISFLYDCLAMAVETGLLPPRLVCESLINSDTLEWERTQLWALTFKLVRKIIGGVDYKGVRDLLKVILEKILTIPNTVSSAVVQQLLAAREVIAYILERNACLLPAYFAVTEIRKLYPEGKLPHWLLGNLVSDFVDTFRPTARINSICGRCSLLPVVNNSGAICNSWKLDPATLRFPLKGLLPYDKDLFEPQTALLRYVLEQPYSRDMVCNMLGLNKQHKQRCPVLEDQLVDLVVYAMERSETEEKFDDGGTSQLLWQHLSSQLIFFVLFQFASFPHMVLSLHQKLAGRGLIKGRDHLMWVLLQFISGSIQKNALADFLPVMKLFDLLYPEKEYIPVPDINKPQSTHAFAMTCIWIHLNRKAQNDNSKLQIPIPHSLRLHHEFLQQSLRNKSLQMNDYKIALLCNAYSTNSECFTLPMGALVETIYGNGIMRIPLPGTNCMASGSITPLPMNLLDSLTVHAKMSLIHSIATRVIKLAHAKSSVALAPALVETYSRLLVYMEIESLGIKGFISQLLPTVFKSHAWGILHTLLEMFSYRMHHIQPHYRVQLLSHLHTLAAVAQTNQNQLHLCVESTALRLITALGSSEVQPQFTRFLSDPKTVLSAESEELNRALILTLARATHVTDFFTGSDSIQGTWCKDILQTIMSFTPHNWASHTLSCFPGPLQAFFKQNNVPQESRFNLKKNVEEEYRKWKSMSNENDIITHFSMQGSPPLFLCLLWKMLLETDHINQIGYRVLERIGARALVAHVRTFADFLVYEFSTSAGGQQLNKCIEILNDMVWKYNIVTLDRLILCLAMRSHEGNEAQVCYFIIQLLLLKPNDFRNRVSDFVKENSPEHWLQNDWHTKHMNYHKKYPEKLYFEGLAEQVDPPVQIQSPYLPIYFGNVCLRFLPVFDIVIHRFLELLPVSKSLETLLDHLGGLYKFHDRPVTYLYNTLHYYEMHLRDRAFLKRKLVHAIIGSLKDNRPQGWCLSDTYLKCAMNAREENPWVPDDTYYCRLIGRLVDTMAGKSPGPFPNCDWRFNEFPNPAAHALHVTCVELMALAVSGKEVGNALLNVVLKSQPLVPRENITAWMNAIGLIITALPEPYWIVLHDRIVSVISSPSLTSETEWVGYPFRLFDFTACHQSYSEMSCSYTLALAHAVWHHSSIGQLSLIPKFLTEVLLPIVKTEFQLLYVYHLVGPFLQRFQQERTRCMIEIGVAFYDMLLNVDQCSTHLNYMDPICDFLYHMKYMFTGDSVKEQVEKIICNLKPALKLRLRFITHISKMEPAAVPPQAMNSGSPAPQSNQVPVSLPVTQ

Biological target: EGFP–STrEP-paxillin (PXN) (human) (UniProt P49023)
Assay: affinity purification with mass spectrometry; Strep-Tactin sepharose beads added to the lysate of HEK293 cells stably expressing tagged paxillin or tagged EGFP (control), 2 h; lysis buffer 20 mM HEPES-KOH pH 7.40, 5 mM CH3COOK, 150 mM NaCl, 0.5 mM MgCl2, 0.5 mM DTT, 0.5% Triton X-100; eluted with 50 mM Tris-HCl pH 8.00, 2.5 mM desthiobiotin; trypsin digest, LC-MS-MS

Molecule | binding
structural maintenance of chromosomes 3 protein (SMC3) (from UniProt Q9UQE7 1-1217) | binds
MED15 (from UniProt Q96RN5 1-788) | binds
B1 | binds
B2 | binds
B3 | binds
